Experiment [1] addresses FLAG-KAP1 wild type (KRAB-associated protein 1), expressed in HEK-293T cells (human) (UniProt Q13263). As to the kind of experiment: co-IP.
The target in experiment [2] is MYC-SMURF2 wild type (Smad Ubiquitin Regulatory Factor 2) (UniProt Q9HAU4). As to the kind of experiment: co-IP.
Experiment [3] has as its target FLAG-KAP1 wild type (KRAB-associated protein 1), expressed in HEK-293T cells (human) (UniProt Q13263). Kind of experiment: pull-down.

By UniProt entry, the sequences of proteins in these tests, tags left out.
UniProt Q13263, whole entry: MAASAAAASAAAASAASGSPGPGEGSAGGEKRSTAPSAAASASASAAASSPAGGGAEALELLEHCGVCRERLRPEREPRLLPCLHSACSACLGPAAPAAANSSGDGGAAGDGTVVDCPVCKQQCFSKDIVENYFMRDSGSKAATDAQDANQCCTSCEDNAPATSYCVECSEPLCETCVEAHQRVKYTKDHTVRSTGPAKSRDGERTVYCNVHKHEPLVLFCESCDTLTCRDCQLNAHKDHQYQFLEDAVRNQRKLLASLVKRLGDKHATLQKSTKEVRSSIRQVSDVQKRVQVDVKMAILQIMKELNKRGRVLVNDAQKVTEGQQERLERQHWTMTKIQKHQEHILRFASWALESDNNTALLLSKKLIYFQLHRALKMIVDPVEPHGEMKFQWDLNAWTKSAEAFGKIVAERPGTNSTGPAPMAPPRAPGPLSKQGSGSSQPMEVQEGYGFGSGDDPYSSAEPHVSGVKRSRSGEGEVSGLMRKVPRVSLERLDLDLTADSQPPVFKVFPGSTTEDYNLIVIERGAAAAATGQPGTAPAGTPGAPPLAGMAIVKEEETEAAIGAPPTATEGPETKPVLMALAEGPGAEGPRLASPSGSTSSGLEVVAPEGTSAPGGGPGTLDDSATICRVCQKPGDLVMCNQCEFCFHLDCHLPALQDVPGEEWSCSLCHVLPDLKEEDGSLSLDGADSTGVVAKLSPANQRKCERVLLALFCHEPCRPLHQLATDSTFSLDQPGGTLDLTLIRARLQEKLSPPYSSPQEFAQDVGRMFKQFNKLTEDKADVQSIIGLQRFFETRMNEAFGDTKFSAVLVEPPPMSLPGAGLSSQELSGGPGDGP
UniProt Q9HAU4, whole entry: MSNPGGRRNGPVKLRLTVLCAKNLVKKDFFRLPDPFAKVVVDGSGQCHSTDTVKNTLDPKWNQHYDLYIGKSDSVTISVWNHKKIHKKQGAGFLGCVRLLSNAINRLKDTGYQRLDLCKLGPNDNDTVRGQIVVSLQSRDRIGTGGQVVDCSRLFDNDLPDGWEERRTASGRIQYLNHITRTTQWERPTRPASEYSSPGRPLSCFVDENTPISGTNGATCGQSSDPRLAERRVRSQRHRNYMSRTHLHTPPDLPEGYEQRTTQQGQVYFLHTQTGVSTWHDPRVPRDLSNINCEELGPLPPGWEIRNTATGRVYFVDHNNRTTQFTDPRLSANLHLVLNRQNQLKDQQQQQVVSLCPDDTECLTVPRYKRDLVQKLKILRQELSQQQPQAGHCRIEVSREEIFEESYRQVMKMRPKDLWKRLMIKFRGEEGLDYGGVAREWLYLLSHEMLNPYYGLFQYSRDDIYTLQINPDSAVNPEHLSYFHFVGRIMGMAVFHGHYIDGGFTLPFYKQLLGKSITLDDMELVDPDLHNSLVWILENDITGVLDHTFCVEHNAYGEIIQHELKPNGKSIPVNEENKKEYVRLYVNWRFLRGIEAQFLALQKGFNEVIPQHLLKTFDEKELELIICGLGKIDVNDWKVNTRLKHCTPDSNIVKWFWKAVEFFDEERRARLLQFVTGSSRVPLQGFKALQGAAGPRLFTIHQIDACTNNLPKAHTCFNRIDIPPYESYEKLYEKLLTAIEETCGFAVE
UniProt Q93009, whole entry: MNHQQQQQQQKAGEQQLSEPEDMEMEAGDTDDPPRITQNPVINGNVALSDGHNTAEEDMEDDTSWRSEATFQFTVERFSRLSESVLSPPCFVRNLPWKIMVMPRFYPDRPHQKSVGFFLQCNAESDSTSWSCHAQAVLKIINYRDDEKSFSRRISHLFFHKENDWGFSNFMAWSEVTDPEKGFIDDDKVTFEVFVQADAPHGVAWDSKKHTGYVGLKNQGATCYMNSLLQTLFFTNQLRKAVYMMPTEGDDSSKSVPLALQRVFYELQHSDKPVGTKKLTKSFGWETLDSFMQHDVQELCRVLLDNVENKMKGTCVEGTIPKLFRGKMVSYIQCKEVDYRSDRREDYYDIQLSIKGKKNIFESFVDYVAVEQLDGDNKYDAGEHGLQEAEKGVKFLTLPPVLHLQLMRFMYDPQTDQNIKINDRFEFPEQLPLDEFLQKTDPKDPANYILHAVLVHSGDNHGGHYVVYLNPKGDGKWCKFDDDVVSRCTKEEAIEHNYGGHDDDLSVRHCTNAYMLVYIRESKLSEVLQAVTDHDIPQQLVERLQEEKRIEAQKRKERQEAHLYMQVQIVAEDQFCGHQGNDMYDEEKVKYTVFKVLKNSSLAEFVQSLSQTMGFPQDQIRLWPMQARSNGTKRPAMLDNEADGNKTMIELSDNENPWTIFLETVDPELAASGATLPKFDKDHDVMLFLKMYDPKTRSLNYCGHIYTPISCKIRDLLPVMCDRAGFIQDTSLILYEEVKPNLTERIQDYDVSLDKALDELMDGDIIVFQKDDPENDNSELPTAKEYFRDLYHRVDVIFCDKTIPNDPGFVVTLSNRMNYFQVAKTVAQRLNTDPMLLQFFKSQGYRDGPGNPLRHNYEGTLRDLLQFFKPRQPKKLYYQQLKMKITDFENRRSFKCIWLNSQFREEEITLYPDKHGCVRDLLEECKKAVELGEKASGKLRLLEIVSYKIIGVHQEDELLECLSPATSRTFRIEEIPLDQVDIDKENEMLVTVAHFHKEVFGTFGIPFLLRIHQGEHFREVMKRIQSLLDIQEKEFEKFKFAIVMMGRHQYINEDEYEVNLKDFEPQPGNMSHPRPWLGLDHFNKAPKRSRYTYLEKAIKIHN

No constants are given. Whether binding was seen depends on the method and setting. For some assays here: Binding seen in cells or lysates may run through a third protein. Some binding calls cover weakened binding; strength is not graded here.

With “MYC-SMURF2 wild type (Smad Ubiquitin Regulatory Factor 2) (from UniProt Q9HAU4 1-748) (enzyme)”, the binding entry in experiment [1] is “binds”.

Consider “endogenous USP7 (HAUSP) of HEK-293T cells (from UniProt Q93009 1-1102) (enzyme)”, for which the binding entry in experiment [2] and in experiment [1] was “binds” in each case.

As to “His6-USP7, purified (from UniProt Q93009 1-1102) (enzyme)”, the binding result in experiment [3] was “binds”.

“V5-tagged USP7 (V5-USP7) (from UniProt Q93009 1-1102) (enzyme)”: the binding entry in experiment [1] is given as “binds”.

These data come from paper doi:10.1101/2025.08.12.669848.
